PubChem BioAssay AID504467 (National Center for Advancing Translational Sciences (NCATS), 2011)
Out of some 330,000 compounds screened, about 7,700 (2.3%) were called active. This list was built around the results that the source calls inconclusive (neither active nor inactive); the mix of calls is not that of the screen. The call rests on the fitted dose curve; in most records, active means well fitted inhibition curve with a large enough effect; inconclusive means small, poorly fitted or top-dose-only effect, or effect the other way; inactive means flat fitted curve, though single readings scatter. Where the call is inconclusive, the potency comes from a doubtful curve fit.
Potency means the concentration at half of the fitted maximal effect.

Assay: qHTS screen for small molecules that inhibit ELG1-dependent DNA repair in human embryonic kidney (HEK293T) cells expressing luciferase-tagged ELG1; further: nearly all actives have a fitted effect of over 55% in size
Details: HEK293T ELG1-luciferase reporter, luminescence, 16 h, DNA damage induced by 5-fluorouridine; series mostly up to 46.1 µM
Outline: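 Cells (2,000 per well) received 5-fluorouridine plus test compound or DMSO and were incubated 16 hr at 37 °C, 5% CO2. Luciferase activity was read by luminescence 30 min after ONE-Glo addition; signal suppression marked inhibition of damage-induced ELG1 function.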
With `CCOC(=O)CSc1nnc(-c2ccccc2OC)o1` the Potency was “inactive”.
For `Cc1nn(Cc2ccccc2)c2c1C(c1ccc(Cl)cc1)C(C#N)=C(N)O2` (stereo not given), the Potency was “inactive”.
With `C/C(N)=C(/C#N)C(=O)COC(=O)c1ccc(OCC2CCCO2)cc1` (stereo not given) the Potency was inconclusive: 16.4 µM [activator, single point].
In the case of `COc1cccc(-n2nnc3c(=O)n(Cc4c(F)cccc4Cl)cnc32)c1`, the Potency is reported as inconclusive: 20.6 µM [activator, partial curve, poor fit].
For `CC(=O)NCCN=Cc1sc2ccccc2c1O`, the Potency was inconclusive: 29.1 µM [activator, single point].
With `Cc1cc(C(C)(C)C)oc1C(=O)N(CC(=O)NC1CCCC1)Cc1ccc(F)cc1` the Potency was “inactive”.
With `O=C(OCc1ccccc1)c1cn(-c2ccccc2)nc1-c1ccncc1` the Potency was inconclusive: 25.9 µM [inhibitor, single point].
In the case of `Cc1ccc(S(=O)(=O)N(CC(=O)Nc2cccc(N(C)S(C)(=O)=O)c2)c2ccc(Cl)c(Cl)c2)cc1`, the Potency is reported as inconclusive: 29.1 µM [inhibitor, single point].
In the case of `O=C(COC(=O)c1ccccc1Br)NCc1ccccc1`, the Potency is reported as inconclusive: 23.1 µM [activator, single point].
With `Cc1ccc(-c2ccc(SCC(=O)N3CCCc4ccccc43)nn2)cc1` the Potency was inconclusive: 2.91 µM [activator, partial curve, poor fit].
In the case of `CC(=O)c1cccc(S(=O)(=O)NCC(c2ccco2)N2CCCCC2)c1` (stereo not given), the Potency is reported as active: 0.58 µM.
In the case of `Cc1ccccc1NC(=O)c1cccc2nc3ccccc3nc12`, the Potency is reported as inconclusive: 7.94 µM [inhibitor, partial curve, poor fit].
In the case of `O=C(CCCN1C(=O)/C(=C/c2ccccc2Cl)SC1=S)NNC(=O)c1cccnc1`, the Potency is reported as “inactive”.
For `NS(=O)(=O)c1cccc(NC(=O)C(Cc2ccccc2)NC(=O)c2ccccc2)c1` (stereo not given), the Potency was “inactive”.
In the case of `C=Cc1cccc(NC(=O)COc2ccccc2)c1`, the Potency is reported as inconclusive: 20.6 µM [activator, single point].
In the case of `C=CCN(C(=O)c1csnn1)C(C(=O)NCc1ccc(F)cc1)c1sccc1C` (stereo not given), the Potency is reported as “inactive”.
In the case of `N#CCC(=O)N1CCN(C=O)CC1`, the Potency is reported as “inactive”.
With `COc1ccccc1NS(=O)(=O)c1cc(NC(=O)c2cccs2)ccc1N1CCOCC1` the Potency was “inactive”.
In the case of `CCOc1cc(C2C3=C(CC(C)(C)CC3=O)N(CCOC)C3=C2C(=O)CC(C)(C)C3)ccc1O`, the Potency is reported as “inactive”.
In the case of `COc1ccc(S(=O)(=O)N(C)c2ccc(C(=O)N3CCCCC3)cc2)cc1OC`, the Potency is reported as inconclusive: 16.4 µM [inhibitor, partial curve].
In the case of `Cc1nnc(SCc2nc3ccccc3s2)n1N`, the Potency is reported as inconclusive: 20.6 µM [activator, partial curve].
With `CCOc1ccc(CCNC(=O)COC(=O)c2cc([N+](=O)[O-])ccc2N2CCOCC2)cc1OCC` the Potency was active: 18.3 µM.
With `CC(C)(C)c1nc2sc3c(c2c(=O)o1)CCCC3` the Potency was inconclusive: 16.4 µM [activator, partial curve, poor fit].
With `COc1cc2c(cc1OC)C(C)N(C(=O)c1ccc(Cl)c(S(=O)(=O)N3CCCCC3)c1)CC2` (stereo not given) the Potency was inconclusive: 29.1 µM [inhibitor, single point].
For `COc1ccccc1N1CC(C)(C)C(=O)N(C(=O)c2ccc(C)cc2)C1=S`, the Potency was inconclusive: 8.2 µM [activator, partial curve].
In the case of `NC(=O)c1cc([N+](=O)[O-])ccc1NCc1cnccn1`, the Potency is reported as “inactive”.
For `Oc1ccc(N=Cc2cc(Br)c(N3CCOCC3)o2)cc1`, the Potency was “inactive”.
With `Cc1ccc(-c2nc(-c3ccccc3)no2)c(Cl)c1` the Potency was inconclusive: 0.184 µM [activator, partial curve, poor fit].
For `COc1cc(C)c(CN2CCN(S(=O)(=O)c3ccc(Cl)s3)CC2)cc1OC`, the Potency was “inactive”.
In the case of `Cc1ccc(C)c(S(=O)(=O)N2CCN(C(=O)CCC(=O)c3cc(C)sc3C)CC2)c1`, the Potency is reported as inconclusive: 20.6 µM [inhibitor, single point].
In the case of `COc1ccc2c(c1)[C@H]1[C@H](CO2)[C@H](c2ccccc2)[C@]2(C)C(=O)Nc3cc(OC)c(OC)cc3C(=O)N12`, the Potency is reported as inconclusive: 3.98 µM [inhibitor, partial curve].
In the case of `COc1ccc(CCNC(=O)NCCc2c[nH]c3ccccc23)cc1OC`, the Potency is reported as “inactive”.
In the case of `COc1ccc(C(=O)NCC(=O)n2nc(C)cc2C)cc1OC`, the Potency is reported as “inactive”.
For `Cc1c(C(=O)NCCCN2CCCCC2)oc2ccc3c(c12)C(O)CC1(CCCCC1)O3` (stereo not given), the Potency was “inactive”.
In the case of `C/C(=N\NC(=O)c1c(C)nc2ccccn12)c1ccco1`, the Potency is reported as inconclusive: 16.4 µM [activator, partial curve].
In the case of `O=c1cc(O)n(-c2ccc(Cl)cc2)c(=S)[nH]1`, the Potency is reported as “inactive”.
In the case of `CCNC(=S)Nc1ccc(-c2nc3ccccc3[nH]2)cc1`, the Potency is reported as inconclusive: 9.2 µM [activator, partial curve].
In the case of `O=C(Nc1cccc(F)c1)N1CCN(C/C=C/c2ccccc2)CC1`, the Potency is reported as inconclusive: 29.1 µM [inhibitor, partial curve, poor fit].
With `CCc1ccc(NC(=S)Nc2cc(C(=O)O)ccc2N2CC3CC(C2)c2cccc(=O)n2C3)cc1` (stereo not given) the Potency was inconclusive: 18.3 µM [activator, single point].
In the case of `CCc1ccc(/C(C)=N/NC(=O)c2ccc(-n3cnnn3)cc2)cc1`, the Potency is reported as “inactive”.
For `Cc1ccc(NC(=O)CN(C)CC(=O)Nc2c(C)cccc2C)c(Br)c1`, the Potency was active: 7.31 µM.
With `O=C(O)c1cc(N/N=C/c2ccc(-c3ccc(F)cc3)o2)ccc1Cl` the Potency was inconclusive: 18.3 µM [activator, partial curve].
With `Cc1nn(-c2ccccc2)c(N2CCCC2)c1/C=N/NC(=O)c1cc2ccccc2cc1O` the Potency was inconclusive: 32.6 µM [inhibitor, single point].
With `CCCCOc1ccc(CNC(=S)N/N=C/c2ccc(OC)c(OC)c2)cc1` the Potency was active: 8.2 µM.
For `O=C1CCCCc2sc(Br)c([N+](=O)[O-])c2N1`, the Potency was inconclusive: 29.1 µM [inhibitor, single point].
For `COC(=O)c1ccc(NC(=O)CSc2nc3cccnc3n2C)cc1`, the Potency was inconclusive: 25.9 µM [inhibitor, single point].
With `O=[N+]([O-])c1ccc(C2=Nn3c(Cn4nnc5ccccc54)nnc3SC2)cc1` the Potency was inconclusive: 29.1 µM [inhibitor, single point].
For `Cc1ccc(SCCC(=O)N(C)CC(=O)Nc2c(C)cccc2C)cc1`, the Potency was “inactive”.
For `N#Cc1c(NCCCO)nc(-c2ccco2)c2c1CCCC2`, the Potency was “inactive”.
In the case of `COC(=O)CSc1ccc(-c2nc3ccc(C)cc3[nH]2)cn1`, the Potency is reported as inconclusive: 18.4 µM [activator, partial curve].
In the case of `CC1CN(C(=O)c2cccc(C(=O)N3CC(C)OC(C)C3)c2)CC(C)O1` (stereo not given), the Potency is reported as “inactive”.
For `CCC[C@@H](O)c1cc2cc(OC)c(OC)cc2c(=O)o1`, the Potency was “inactive”.
With `COc1ccc(-c2nc(CS(=O)(=O)CC(=O)Nc3ccc(Cl)cc3)c(C)o2)cc1` the Potency was inconclusive: 18.4 µM [inhibitor, single point].
With `CCC(=O)Oc1ccc2c(c1)OC1(OC(C)=O)OC(C)CC1=C2C` (stereo not given) the Potency was inconclusive: 18.3 µM [inhibitor, single point].
In the case of `CCN1CCCc2cc(CN(CCN3CCOCC3)C(=S)Nc3ccc(C)cc3)ccc21`, the Potency is reported as inconclusive: 23.1 µM [inhibitor, single point].
In the case of `CC(=O)c1c(-c2ccccc2)c2cc([N+](=O)[O-])ccc2[nH]c1=O`, the Potency is reported as inconclusive: 18.3 µM [inhibitor, single point].
In the case of `Clc1ccc2ncc(-c3nnnn3-c3ccccc3)c(-c3ccccc3)c2c1`, the Potency is reported as “inactive”.
For `O=C(Nc1ccccc1)c1nnsc1S(=O)c1ccc(Cl)cc1` (stereo not given), the Potency was “inactive”.
With `Cc1ccc(NC(=O)Cn2c(O)c(N=NC(N)=O)c3ccccc32)cc1` the Potency was inconclusive: 14.6 µM [inhibitor, partial curve, poor fit].
In the case of `O=C(O)CC(NC(=O)C12CC3CC(CC(C3)C1)C2)c1cc([N+](=O)[O-])ccc1Cl` (stereo not given), the Potency is reported as inconclusive: 29.1 µM [inhibitor, single point].
For `CCOc1ccc2ncc(S(=O)(=O)c3ccccc3)c(N3CCC4(CC3)OCCO4)c2c1`, the Potency was inconclusive: 23.1 µM [inhibitor, single point].
In the case of `CCCC1C(=O)Nc2ccccc2N1C(=O)c1ccc(C(C)(C)C)cc1` (stereo not given), the Potency is reported as inconclusive: 32.6 µM [inhibitor, single point].
In the case of `O=c1cc(-c2ccc(O)cc2)oc2c1ccc1ccccc12`, the Potency is reported as inconclusive: 10.3 µM [activator, partial curve, poor fit].
For `Nc1nonc1-n1nnc(C(=O)N/N=C/c2ccc(OCc3ccccc3)cc2)c1CN1CCCCC1`, the Potency was inconclusive: 29.1 µM [activator, single point].
For `C/C(=N\NC(=O)c1c[nH]c2ccccc12)c1ccc(C)o1`, the Potency was inconclusive: 29.1 µM [activator, single point].
In the case of `O=[N+]([O-])c1cc(S(=O)(=O)N2CCCCC2)ccc1NCc1cccc(Cl)c1`, the Potency is reported as “inactive”.
In the case of `O=C(NCc1ccccc1)c1ccc(Cl)c(S(=O)(=O)N2CCCC2)c1`, the Potency is reported as inconclusive: 29.1 µM [inhibitor, single point].
For `N#Cc1c2n(c3c(=O)n(Cc4ccc(Cl)cc4)cnc13)CCCCC2`, the Potency was inconclusive: 29.1 µM [inhibitor, single point].
In the case of `COc1ccccc1CNC(=O)N[C@@H](Cc1ccccc1)C(=O)O`, the Potency is reported as inconclusive: 0.13 µM [activator, single point].
In the case of `COc1ccccc1OCCSc1nc2ccccc2n1CC(N)=O`, the Potency is reported as inconclusive: 32.6 µM [activator, partial curve, poor fit].
